Earlier results as cited in patent US20240059753A1, “COMPOSITIONS INCLUDING MULTI-AGONIST PEPTIDES AND METHODS OF MANUFACTURE AND USE” (Pep2Tango Therapeutics Inc., priority 2022, published 2024).
Like-named read-outs stand apart in the source and are kept apart here. At least one peptide structure holds a part that was inferred or is arguable (an end, a ring closure or a residue).

Conditions: cited from earlier work

Q: For CC[C@H](C)[C@H](NC(=O)[C@H](CO)NC(=O)[C@H](Cc1ccc(O)cc1)NC(=O)[C@H](CC(=O)O)NC(=O)[C@H](CO)NC(=O)[C@@H](NC(=O)[C@H](Cc1ccccc1)NC(=O)[C@@H](NC(=O)CNC(=O)[C@H](CCC(=O)O)NC(=O)[C@H](C)NC(=O)[C@@H](N)Cc1ccc(O)cc1)[C@@H](C)O)[C@@H](C)CC)C(=O)N[C@@H](C)C(=O)N[C@@H](CCSC)C(=O)N[C@@H](CC(=O)O)C(=O)N[C@@H](CCCCN)C(=O)N[C@H](C(=O)N[C@@H](Cc1c[nH]cn1)C(=O)N[C@@H](CCC(N)=O)C(=O)N[C@@H](CCC(N)=O)C(=O)N[C@@H](CC(=O)O)C(=O)N[C@@H](Cc1ccccc1)C(=O)N[C@H](C(=O)N[C@@H](CC(N)=O)C(=O)N[C@@H](Cc1c[nH]c2ccccc12)C(=O)N[C@@H](CC(C)C)C(=O)N[C@@H](CC(C)C)C(=O)N[C@@H](C)C(=O)N[C@@H](CCC(N)=O)C(=O)N[C@@H](CCCCN)C(=O)NCC(=O)N[C@@H](CCCCN)C(=O)N[C@@H](CCCCN)C(=O)N[C@@H](CC(N)=O)C(=O)N[C@@H](CC(=O)O)C(=O)N[C@@H](Cc1c[nH]c2ccccc12)C(=O)N[C@@H](CCCCN)C(=O)N[C@@H](Cc1c[nH]cn1)C(=O)N[C@@H](CC(N)=O)C(=O)N[C@H](C(=O)N[C@H](C(=O)N[C@@H](CCC(N)=O)C(=O)O)[C@@H](C)O)[C@@H](C)CC)C(C)C)[C@@H](C)CC [GIP], which “Half-life of intact GIP” value (diabetic subjects) is on record?
A: ~5.2 min

Q: And the “Half-life of intact GIP” value (healthy subjects)?
A: approximately 7.3 minutes
